PubChem BioAssay AID1259308, NCATS – 2017
Aim: 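Genes whose loss raises luciferase production in HEK293 cells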 (primary screen). System: human HEK293 embryonic kidney cells stably expressing firefly luciferase (HEK-CMV-Luc2-Hygro). Reagent: single siRNA against human genes, 0.8 pmol siRNA per well. Timing: 72 h. Measured: 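Luciferase light (ONE-Glo) measured on one replicate plate set and viability (CellTiter-Glo) on the other, scaled to a negative control siRNA, with robust z-scores and luciferase per cell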. Direction: total luciferase, z-score: higher = more reporter protein produced. Active means: 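Active when the median/MAD z-score for overall luciferase is greater than 3; a gene was taken forward for validation with new siRNAs if at least two of its three siRNAs passed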. Meaning of the calls: active = raised luciferase; inactive = no rise.
In all, the deposit lists about 59,000 reagents; this is an unselected part. About 1,510 of all reagents (2.6%) count as active. 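Calls use total luciferase alone and ignore viability, so some active siRNAs may act by altering cell number.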 Unmarked entries are inactive. Reagents against one gene are numbered here. Not all columns of the deposit are shown.

What did the screen give for FBL #1?
total luciferase, z-score: 1.4

With FBL #2, what does the deposit list?
total luciferase, z-score: -1.44

What is on record for FBL #3?
total luciferase, z-score: -0.867

What is on record for ZNF692 #1?
total luciferase, z-score: -1.49

How did the screen score ZNF692 #2?
total luciferase, z-score: -0.79

For ZNF692 #3, what was measured?
total luciferase, z-score: -0.63

What did the screen give for TTC34 #1?
total luciferase, z-score: 2.14

For TTC34 #2, what was measured?
total luciferase, z-score: 0.312

How did the screen score TTC34 #3?
total luciferase, z-score: -0.0336

For TTC34 #4, what was measured?
total luciferase, z-score: 0.066

With TTC34 #5, what was measured?
total luciferase, z-score: -1.78

With TTC34 #6, what was measured?
total luciferase, z-score: 0.0234

With ZDHHC4 #1, what does the deposit list?
total luciferase, z-score: 0.341

What did the screen give for ZDHHC4 #2?
total luciferase, z-score: -0.396

What did the screen give for ZDHHC4 #3?
total luciferase, z-score: -2.11

For ITFG1 #1, what was measured?
total luciferase, z-score: 2.17

How did the screen score ITFG1 #2?
total luciferase, z-score: -0.312

Which result is listed for ITFG1 #3?
total luciferase, z-score: 0.0996

What did the screen give for OR51E2 #1?
total luciferase, z-score: -0.858

For OR51E2 #2, how do the results read?
total luciferase, z-score: 1.03

What is on record for OR51E2 #3?
total luciferase, z-score: 0.164

With POLR1G #1, what was measured?
total luciferase, z-score: 0.134

With POLR1G #2, what was measured?
total luciferase, z-score: 1.47

With POLR1G #3, what does the deposit list?
total luciferase, z-score: 2.05

Quoted from the entries so far, 4 entries:
OR51E2 #2 → total luciferase, z-score = 1.03
OR51E2 #3 → total luciferase, z-score = 0.164
POLR1G #1 → total luciferase, z-score = 0.134
POLR1G #2 → total luciferase, z-score = 1.47

The list goes on:
Which result is listed for NEURL4 #1?
total luciferase, z-score: -0.391

How did the screen score NEURL4 #2?
total luciferase, z-score: -0.365

Which result is listed for NEURL4 #3?
total luciferase, z-score: -1.32

What did the screen give for FEZ2 #1?
total luciferase, z-score: 2.15

For FEZ2 #2, what does the deposit list?
total luciferase, z-score: 0.0574

With FEZ2 #3, how do the results read?
total luciferase, z-score: 0.166

For METTL21A #1, what does the deposit list?
total luciferase, z-score: 1.4

With METTL21A #2, how do the results read?
total luciferase, z-score: -0.158

For METTL21A #3, how do the results read?
total luciferase, z-score: 0.282

How did the screen score LRP4 #1?
total luciferase, z-score: 0.658

How did the screen score LRP4 #2?
total luciferase, z-score: 0.784

Which result is listed for LRP4 #3?
total luciferase, z-score: 1.43

How did the screen score BICRAL #1?
total luciferase, z-score: -1.46

For BICRAL #2, what does the deposit list?
total luciferase, z-score: 0.115

How did the screen score BICRAL #3?
total luciferase, z-score: -0.521

With COL2A1 #1, what was measured?
total luciferase, z-score: -0.851

What did the screen give for COL2A1 #2?
total luciferase, z-score: -0.274

What is on record for COL2A1 #3?
total luciferase, z-score: 0.683
